Key:
[1] = Estimation of the interaction between oleic acid and the test substance; format: physicochemical
[2] = Dynamic laser light scattering (DLS) of oleic acid micro-/nanoemulsions; format: physicochemical

**Q.** Which “Interaction with Oleic Acid” value [1] does the source give for `CN(C)C(=N)NC(=N)N.Cl` [1,1-Dimethylbiguanide hydrochloride, reference compound] here?
**A.** Its value is “X, E”.

**Q.** What about the “Mean Size by Intensity” value ([2]; DLS, emulsion with oleic acid) of the same molecule?
**A.** Its value is 106 nm.

**Q.** And the Part ([2]; percentage of the peak in the sample)?
**A.** The Part was 89.4%.

Reference: patent US9127233B2, “Device and method for solubilizing, separating, removing and reacting carboxylic acids in oils, fats, aqueous or organic solutions by means of micro-or nanoemulsification” (priority 2010, dated 2015)
